The values below come from patent publication US20060062732A1, “Medicine for detecting lipid components in vivo and vascular endoscope” (Yasumi UCHIDA, priority 2004, published 2006).

The nature of series [1]: Dye-evoked fluorescence of lyso PC, fluorescent microscopy.
Series [2] is described as follows: Dye-evoked fluorescence of cholesteryl linolate, fluorescent microscopy. Also noted: key: B: blue.; G: green.; O: orange.; W: white.; Y: yellow.
Series [3] is described as follows: Dye-evoked fluorescence of calcium phosphate, fluorescent microscopy. More on the design: key: B: blue.; G: green.; O: orange.; W: white.; Y: yellow.
Series [4] deals with Atherosclerotic plaques of human coronary artery. The experiment in a line: Scanning microscopic observation of dye-evoked fluorescence in removed human coronary plaques. The note with it: plaque segments dipped into 10^-5 M dye solution for 5 min.
For series [5] the test system is unchanged. The experiment in a line: Dye-evoked fluorescence of human coronary plaques by color fluorescent image angioscopy system. The following applies: artery perfused with dye solution for 5 min.
In series [6] the test system is OxLDL (oxidized low density lipoprotein). The experiment in a line: Dye-evoked fluorescence of oxLDL, fluorescent microscopy. More on the design: key: B: blue.; G: green.; O: orange.; W: white.; Y: yellow. The following applies: exciting 470 nm, emitting 515 nm.
For series [7], the system named is LDL (low density lipoprotein). The experiment in a line: Dye-evoked fluorescence of LDL, fluorescent microscopy. Also noted: key: B: blue.; G: green.; O: orange.; W: white.; Y: yellow.
The test system of series [8] is VLDL (very low density lipoprotein). The series can be described thus: Dye-evoked fluorescence of VLDL, fluorescent microscopy. Also noted: key: B: blue.; G: green.; O: orange.; W: white.; Y: yellow.
Series [9] relates to IDL (intermediate density lipoprotein). The experiment in a line: Dye-evoked fluorescence of IDL, fluorescent microscopy. Also noted: key: B: blue.; G: green.; O: orange.; W: white.; Y: yellow.
Series [10] deals with HDL (high density lipoprotein). The series can be described thus: Dye-evoked fluorescence of HDL, fluorescent microscopy. Also noted: key: B: blue.; G: green.; O: orange.; W: white.; Y: yellow.
Series [11] in a line: Dye-evoked fluorescence of PC, fluorescent microscopy. More on the design: key: B: blue.; G: green.; O: orange.; W: white.; Y: yellow.
The nature of series [12]: Dye-evoked fluorescence of TG, fluorescent microscopy. More on the design: key: B: blue.; G: green.; O: orange.; W: white.; Y: yellow.
The test system of series [13] is OxLDL (oxidized low density lipoprotein). The experiment in a line: Dye-evoked fluorescence of oxLDL, fluorescent microscopy. Also noted: key: B: blue.; Br: brown.; G: green.; Go: gold.; O: orange.; P: purple.; R: red.; SB: sky blue.; V: violet.; W: white.; Y: yellow.
In series [14] the test system is LDL (low density lipoprotein). The experiment in a line: Dye-evoked fluorescence of LDL, fluorescent microscopy. More on the design: key: B: blue.; Br: brown.; G: green.; Go: gold.; O: orange.; P: purple.; R: red.; SB: sky blue.; V: violet.; W: white.; Y: yellow.
Series [15] has as its system VLDL (very low density lipoprotein). The series can be described thus: Dye-evoked fluorescence of VLDL, fluorescent microscopy. Also noted: key: B: blue.; Br: brown.; G: green.; Go: gold.; O: orange.; P: purple.; R: red.; SB: sky blue.; V: violet.; W: white.; Y: yellow.
Series [16] has as its system IDL (intermediate density lipoprotein). The experiment in a line: Dye-evoked fluorescence of IDL, fluorescent microscopy. Also noted: key: B: blue.; Br: brown.; G: green.; Go: gold.; O: orange.; P: purple.; R: red.; SB: sky blue.; V: violet.; W: white.; Y: yellow.
Series [17] deals with HDL (high density lipoprotein). The series can be described thus: Dye-evoked fluorescence of HDL, fluorescent microscopy. Also noted: key: B: blue.; Br: brown.; G: green.; Go: gold.; O: orange.; P: purple.; R: red.; SB: sky blue.; V: violet.; W: white.; Y: yellow.
Series [18] in a line: Dye-evoked fluorescence of PC, fluorescent microscopy. Also noted: key: B: blue.; Br: brown.; G: green.; Go: gold.; O: orange.; P: purple.; R: red.; SB: sky blue.; V: violet.; W: white.; Y: yellow.
Series [19] is described as follows: Dye-evoked fluorescence of lyso PC, fluorescent microscopy. More on the design: key: B: blue.; Br: brown.; G: green.; Go: gold.; O: orange.; P: purple.; R: red.; SB: sky blue.; V: violet.; W: white.; Y: yellow.
Series [20] deals with OxLDL (oxidized low density lipoprotein). The experiment in a line: Dye-evoked fluorescence of oxLDL, fluorescent microscopy.
Series [21] can be described thus: Dye-evoked fluorescence of lyso PC, fluorescent microscopy. Also noted: key: B: blue.; G: green.; O: orange.; W: white.; Y: yellow. The following applies: exciting 470 nm, emitting 515 nm.
[22] abbreviates: exciting at 360 nm and emitting at 420 nm.
Setting [23] is: exciting at 470 nm and emitting at 515 nm.
Setting [24] is: exciting 360 nm, emitting 420 nm.
The mark [25] stands for this setting: exciting 470 nm, emitting 515 nm.

On to `CC[n+]1c(-c2ccccc2)c2cc(N)ccc2c2ccc(N)cc21` [Homidium chloride], for which the “Dye-evoked fluorescence colour” value in series [1] (setting [22]) is recorded as “red fluorescence”; in series [1] (setting [23]) it was “red fluorescence”; in [2] (setting [24]) it was “W”; in series [2] (setting [25]) it was “Y”; in [3] (setting [24]) it was “W”; in series [3] (setting [25]), “Y”. In addition, the Dye-evoked fluorescence colour result is “O” in [6]; “O” in series [7] (setting [25]); “O” in series [8] (setting [25]); “O” in series [9] (setting [25]); “Y” in series [10] (setting [25]); “Y” in series [11] (setting [25]). The Dye-evoked fluorescence colour result in series [12] (setting [24]) is listed as “O”; in series [12] (setting [25]), “O”; in series [13] (setting [24]) it was “V”; in [14] (setting [24]) it was “P”; in [15] (setting [24]), “P”; in [16] (setting [24]), “P”. Also, the Dye-evoked fluorescence colour entry in series [17] (setting [24]) is on record as “P”; in series [18] (setting [24]), “P”; in series [19] (setting [24]) it was “R”; in [19] (setting [25]), “R”. Also, the “Dye-evoked fluorescence of the plaque” value in [4] (setting [22]) and in [4] (setting [23]) was “red fluorescence” throughout. In addition, in series [5] (filters not stated), the “Dye-evoked fluorescent image of the plaque” value (“Dye-evoked fluorescent image” below) is recorded as “red fluorescence”.

With `Cc1cc(-c2ccc(/N=N/c3ccc4c(S(=O)(=O)O)cc(S(=O)(=O)O)c(N)c4c3O)c(C)c2)ccc1/N=N/c1ccc2c(S(=O)(=O)O)cc(S(=O)(=O)O)c(N)c2c1O` [Evans blue], the “Dye-evoked fluorescence colour” value is “violet fluorescence” in [20] (setting [22]); “brown fluorescence” in series [20] (setting [23]); “B” in [2] (setting [24]); “G” in series [2] (setting [25]); “B” in series [3] (setting [24]); “Y” in [3] (setting [25]). For the same compound, the Dye-evoked fluorescence colour result in [9] (setting [25]) is recorded as “O”; in series [11] (setting [25]) it was “O”; in series [21], “O”; in series [13] (setting [24]) it was “V”; in [13] (setting [25]) it was “Br”; in [14] (setting [25]) it was “R”. In addition, the Dye-evoked fluorescence colour entry was “R” in series [15] (setting [25]); “R” in [17] (setting [24]); “R” in [17] (setting [25]); “V” in [18] (setting [24]); “V” in series [19] (setting [24]). The “Dye-evoked fluorescence of the plaque” value in series [4] (setting [22]) is “violet fluorescence”; in series [4] (setting [23]), “brown fluorescence”. In addition, the “Dye-evoked fluorescent image” value in series [5] (setting [22]) is on record as “violet fluorescence”; in series [5] (setting [23]), “brown fluorescence”.

On to `O=S(=O)([O-])c1cccc(N=Nc2ccc(Nc3ccccc3)cc2)c1.[Na+]` [Metanyl yellow], for which, in [5] (filters not stated), the “Dye-evoked fluorescent image” value is “brown fluorescence”. Moreover, the Dye-evoked fluorescence colour entry in series [6] is recorded as “Y”; in series [18] (setting [24]), “Br”; in series [18] (setting [25]), “R”; in [19] (setting [24]) it was “Br”; in [19] (setting [25]), “Br”.

Turning to `CC[N+](CC)=c1ccc2nc3c(cc(N)c4ccccc43)oc-2c1` [Nile blue], in series [4] (setting [23]), the “Dye-evoked fluorescence of the plaque” value was “golden fluorescence”. Further, in series [5] (filters not stated), the “Dye-evoked fluorescent image” value is “golden fluorescence”. The Dye-evoked fluorescence colour result in [7] (setting [24]) is reported as “O”; in series [7] (setting [25]), “O”; in series [8] (setting [25]) it was “G”; in series [9] (setting [25]), “G”; in [10] (setting [25]) it was “G”; in series [11] (setting [25]), “O”. For the same compound, the Dye-evoked fluorescence colour result is “O” in series [21]; “Y” in [12] (setting [24]); “Y” in series [12] (setting [25]); “Go” in [13] (setting [25]); “R” in series [18] (setting [24]); “R” in series [19] (setting [24]).

With `CC1=NN(c2cc(Cl)c(S(=O)(=O)[O-])cc2Cl)C(=O)C1N=Nc1ccc(S(=O)(=O)[O-])cc1.[Na+].[Na+]` (centres unmarked) [Lissamine fast yellow], in [5] (filters not stated), the “Dye-evoked fluorescent image” value was “brown fluorescence”. The Dye-evoked fluorescence colour entry is on record as “O” in series [8] (setting [24]); “O” in [8] (setting [25]); “Y” in series [9] (setting [24]); “O” in series [10] (setting [24]); “O” in series [10] (setting [25]); “W” in series [11] (setting [24]). The Dye-evoked fluorescence colour entry in series [11] (setting [25]) is given as “Y”; in series [16] (setting [25]), “R”; in [19] (setting [24]), “Br”; in series [19] (setting [25]) it was “Br”.
